“Also recorded” adds a separate entry of the source. At least one peptide structure holds a part that was inferred or is arguable (an end, a ring closure or a residue). Ends that are not written are not given here.
What was measured:
[1] = Dissolution of peptide in water (visible precipitate); format: physicochemical; settings: concentrations of 40 mM and lower
[2] = system: antisera from mice immunized with OVA; test: ELISA of OVA antisera on OVA- or O-Q11-coated plates; format: binding; settings: antisera from CFA-adjuvanted groups
C57BL/6 mice = test: Subcutaneous immunization of mice, serum antibody titers and isotypes by ELISA (Example 1); format: in vivo
Experimental: To investigate how fibrillization affected the immunogenicity of OVA, C57BL/6 mice were immunized subcutaneously with the different peptides and boosted with additional peptide at 28 days (see methods). Serum was collected seven days after the boost, and levels of various immunoglobulins were measured.
Immunizations. […] Stock solutions were then diluted in sterile, endotoxin-free PBS to working concentrations. […] CFA-adjuvanted groups received the same volume and total peptide dose, prepared by emulsifying peptide/PBS solutions 1:1 in CFA. […] CFA groups were boosted in incomplete Freund's adjuvant (IFA). Mice receiving mixtures of Q11 and OVA received 100 nmol of each peptide in the first injection and 50 nmol of each in the second. Seven days after the boost, the mice were sacrificed, and sera and spleens were harvested.
Determination of antibody titers. High-binding ELISA plates (eBioscience) were coated with either 20 μg/mL peptide in PBS or PBS alone (for uncoated background subtraction) overnight at 4° C. […] To determine titers for each antiserum, background absorbance values from uncoated wells were subtracted from coated wells, and net absorbances were compared to cutoff values. The cutoff consisted of the mean plus three times the standard deviation of the negative control group (mice receiving OVA without adjuvant) for each corresponding dilution. Any sample dilutions having absorbances above this cutoff value were considered positive readings. The titer was considered as the highest dilution for which it and all lower dilutions had positive readings. If no positive dilutions were present the titer was considered to be 10^2. […] Antibody isotypes were analyzed similarly using a mouse monoclonal antibody kit containing goat anti-mouse IgG1, IgG2a, IgG2b, IgG3, and IgM (Sigma).

[3] = system: splenocytes from immunized mice; test: Splenocyte isolation and in vitro peptide challenge, cytokine ELISA; format: cell-based; settings: 5 μg/ml challenging peptide, 24 h, compared with positive controls
CFSE labeled OTII cells = test: Adoptive transfer of CFSE-labeled OTII T cells and immunization; parameters: species or system mice; settings: mouse, in vivo
Experimental: Antibody responses to self-assembled peptides are T cell-dependent. […] To determine the requirement for T cells, an adoptive T cell transfer assay was performed. Specifically, mice were injected with CFSE labeled […] cells, which express receptors for the H-2^b restricted OVA epitope. Antigen-mediated proliferation causes a decrease in the CFSE intensity which can be detected by flow cytometry.
Adoptive Transfer of T cells OTII transgenic mice on C57BL/6 background, whose T cells recognize the OVA peptide and carry a marker to distinguish them from naïve T cells from B6 mice (CD90.1 congenic). In vivo CD4+ T cell proliferation was analyzed after adoptive transfer into mice and immunization with the peptides. Briefly, splenocytes and lymph nodes of OTII+ C57BL/6 mice were processed into a single cell suspension and enriched for CD4+ T cells, by negative magnetic separation (Miltenyi Biotec). […] After staining, cells were washed twice with FACS buffer and samples were run on the LSR-II (BD Biosciences, NJ) flow cytometer and analyzed for evidence of proliferation as indicated by dilution of CFSE intensity using. FlowJo cytometry analysis software (Tree Star, OR) was used to analyze and quantify the results. […]

## ISQAVHAAHAEINEAGRSGSGQQKFQFQFEQQ-NH2 (C-terminus assumed) [O-Q11]
[1]
  Visible precipitate when dissolved in water: no visible precipitate
[2]
  OVA-reactive IgG of OVA antisera measured on O-Q11 plates versus OVA plates: reacted similarly
C57BL/6 mice; O-Q11 antisera
  Reactivity of antisera to OVA-coated plates: bound to OVA-coated plates; also recorded: strongly cross-reactive
  Reactivity of antisera to Q11-coated plates: smaller, statistically insignificant levels; also recorded: small amount of reactivity
C57BL/6 mice; delivered in CFA
  Total IgG response: Even higher titers; also recorded: increased IgG titers
C57BL/6 mice; mouse, in vivo
  Anti-peptide IgG titers, O-Q11 in PBS compared with OVA peptide in CFA: similar
  Dominant antibody isotype: IgG1
  IgG1, IgG2a, and IgG3 production, Q11-adjuvanted compared with CFA-adjuvanted: statistically similar quantities
  IgM production, Q11-adjuvanted compared with CFA-adjuvanted: greater
C57BL/6 mice; peptide in PBS without added adjuvant, s.c., boost day 28, serum 7 days after boost
  Total IgG response: high IgG titers
[3]
  IFN-γ, IL-2 and IL-4 production by splenocytes challenged with the immunizing peptide: did not produce significant levels
CFSE labeled OTII cells
  Antibody production after adoptive transfer of OTII cells: rapid antibody production
